For some of these results: A negative result means that nothing was seen under these conditions. For some of these results: Where a protein sequence is shown, tags need not be part of it. A weaker result is weaker than the reference pair of the same experiment. The exact form of at least one protein or probe is not confirmed.
What was measured:
[1] = target: T1, Endonuclease V (Thermotoga maritima) (UniProt Q9X2H9); assay: enzyme reaction in vitro; conditions: purified recombinant protein, protein details: Fisher Scientific FEREN0141, folded or branched DNA
T1 sequence (looked up, limits assumed): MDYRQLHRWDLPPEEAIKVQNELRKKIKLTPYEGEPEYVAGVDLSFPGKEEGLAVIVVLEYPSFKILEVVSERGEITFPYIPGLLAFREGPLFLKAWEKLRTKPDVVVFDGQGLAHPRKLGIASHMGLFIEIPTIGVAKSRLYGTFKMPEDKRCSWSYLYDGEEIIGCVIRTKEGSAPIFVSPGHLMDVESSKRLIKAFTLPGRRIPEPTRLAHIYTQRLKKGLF

Sequences of proteins named here, by UniProt entry; tags and fusion partners are left off.
UniProt P19821, whole entry: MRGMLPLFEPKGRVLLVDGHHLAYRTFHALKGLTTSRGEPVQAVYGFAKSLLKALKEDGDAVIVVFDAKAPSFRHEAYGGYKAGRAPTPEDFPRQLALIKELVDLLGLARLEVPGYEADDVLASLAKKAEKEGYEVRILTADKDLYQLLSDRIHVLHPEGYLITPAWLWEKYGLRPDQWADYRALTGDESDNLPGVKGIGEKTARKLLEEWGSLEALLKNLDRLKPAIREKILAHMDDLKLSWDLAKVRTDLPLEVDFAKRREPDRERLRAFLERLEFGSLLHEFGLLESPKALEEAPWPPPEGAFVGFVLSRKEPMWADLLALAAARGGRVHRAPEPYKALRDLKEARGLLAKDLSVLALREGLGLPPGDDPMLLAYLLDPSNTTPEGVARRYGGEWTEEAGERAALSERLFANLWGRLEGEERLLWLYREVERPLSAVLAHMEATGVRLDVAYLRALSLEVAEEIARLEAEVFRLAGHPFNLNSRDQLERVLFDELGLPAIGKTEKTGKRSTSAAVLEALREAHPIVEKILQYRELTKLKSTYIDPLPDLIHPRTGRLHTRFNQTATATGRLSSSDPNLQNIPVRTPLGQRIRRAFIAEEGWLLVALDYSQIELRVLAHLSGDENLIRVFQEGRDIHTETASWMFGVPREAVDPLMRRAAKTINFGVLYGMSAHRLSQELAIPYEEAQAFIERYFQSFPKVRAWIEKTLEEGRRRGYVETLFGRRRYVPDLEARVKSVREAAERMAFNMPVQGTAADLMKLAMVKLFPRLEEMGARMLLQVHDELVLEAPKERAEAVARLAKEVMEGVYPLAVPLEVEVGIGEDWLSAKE

Taq DNA polymerase = Taq DNA polymerase (UniProt P19821); assay: inhibition of the protein; conditions: 80 nM aptamer, purified recombinant protein, protein details: GenScript E00007, folded or branched DNA

For “AAATTATATTCTTAGCGTTTTATAATTTTAAAACGAAGTTTTA [circular aptamer SEQ ID NO:14]”, the “activity on this sequence” value ([1]; deoxyinosine at position 15 (n), loop TTCTTAICGTTT [15 deoxyinosine (parent base G)], only partial Taq reactivation (indirect PCR readout), letters built from the parent sequence and the stated change, variant of circular aptamer SEQ ID NO:6) was “less active” and the “functional effect of the aptamer” value (Taq DNA polymerase; deoxyinosine at position 15 (n), loop TTCTTAICGTTT [15 deoxyinosine (parent base G)], highly effective deactivation, 60 C, letters built from the parent sequence and the stated change, variant of circular aptamer SEQ ID …) was “active”.
For “AGTTTTAAAATTATATTCTTAGCGTTTTATAATTTTAAAACGA [noncircular aptamer SEQ ID NO:5]”, the “functional effect of the aptamer” value (Taq DNA polymerase; very little if any polymerase deactivation, real-time PCR 60 C, 5 mM MgCl2, 50 mM KCl, pH 8.0, variant of circular aptamer SEQ ID NO:6) was “less active”.
For “AAATTATATTCTTAGCGTTTTATAACTTTAAAACGAAGTTTTA [circular aptamer SEQ ID NO:9]”, the “functional effect of the aptamer” value (Taq DNA polymerase; deoxyinosine at position 3 (n) [3 deoxyinosine (parent base A)], very effective deactivation, 5 mM MgCl2, 60 C, letters built from the parent sequence and the stated change, variant of circular aptamer SEQ ID …) was “active”.
For “AAATTATATTCTTAGCGTTTTATAATTTTAACACGAAGTTTTA [circular aptamer SEQ ID NO:11]”, the “activity on this sequence” value ([1]; deoxyinosine at position 40 (n) [40 deoxyinosine (parent base T)], Taq activity completely restored (indirect PCR readout), letters built from the parent sequence and the stated change, variant of circular aptamer SEQ ID NO:6) was “active” and the “functional effect of the aptamer” value (Taq DNA polymerase; deoxyinosine at position 40 (n) [40 deoxyinosine (parent base T)], less effective inactivation, 60 C, letters built from the parent sequence and the stated change, variant of circular aptamer SEQ ID …) was “less active”.
In the case of “AAATTATATTCTTAGCGTTTTATAATTTTAAAACGAAGTTTCA [circular aptamer SEQ ID NO:8]”, the “activity on this sequence” value ([1]; deoxyinosine at position 30 (n) [30 deoxyinosine (parent base A)], very effective reactivation of Taq (indirect PCR readout), 0.04 U/uL, 5 mM MgCl2, letters built from the parent sequence and the stated change, variant of circular aptamer SEQ ID NO:6) is reported as “active” and the “functional effect of the aptamer” value (Taq DNA polymerase; deoxyinosine at position 30 (n) [30 deoxyinosine (parent base A)], very effective inactivation, 5 mM MgCl2, 60 C, letters built from the parent sequence and the stated change, variant of circular aptamer SEQ ID …) is reported as “active”.
“AAATTATATTCTTAGCGTTTTATAATTTTAAAACGAAGTTTTA [circular aptamer SEQ ID NO:15]” was tested, and the “functional effect of the aptamer” value (Taq DNA polymerase; deoxyinosine at position 17 (n), in loop [17 deoxyinosine (parent base G)], very ineffective deactivation, 60 C, letters built from the parent sequence and the stated change, variant of circular aptamer SEQ ID …) was “less active”.
For “AAACTATATTCTTAGCGTTTTATAATTTTAAAACGAAGTTTTA [circular aptamer SEQ ID NO:7]”, the “activity on this sequence” value ([1]; deoxyinosine at position 25 (n) [25 deoxyinosine (parent base A)], very effective reactivation of Taq (indirect PCR readout), 0.04 U/uL, 5 mM MgCl2, letters built from the parent sequence and the stated change, variant of circular aptamer SEQ ID NO:6) was “active” and the “functional effect of the aptamer” value (Taq DNA polymerase; deoxyinosine at position 25 (n) [25 deoxyinosine (parent base A)], very effective inactivation, 5 mM MgCl2, 60 C, letters built from the parent sequence and the stated change, variant of circular aptamer SEQ ID …) was “active”.
With “AAATTATATTCTTAGCGTTTTATAATTTTAAAACGAAGTTTTA [circular aptamer SEQ ID NO:13]” the “functional effect of the aptamer” value (Taq DNA polymerase; deoxyinosine at position 13 (n), loop TTCTIAGCGTTT [13 deoxyinosine (parent base T)], inactivates but much less effective than SEQ 12, 60 C, letters built from the parent sequence and the stated change, variant of circular aptamer SEQ ID …) was “less active”.
For “AAATTATATTCTTAGCGTTTTATAATTTCAAAACGAAGTTTTA [circular aptamer SEQ ID NO:10]”, the “activity on this sequence” value ([1]; deoxyinosine at position 43 (n) [43 deoxyinosine (parent base A)], Taq activity completely restored (indirect PCR readout), letters built from the parent sequence and the stated change, variant of circular aptamer SEQ ID NO:6) was “active” and the “functional effect of the aptamer” value (Taq DNA polymerase; deoxyinosine at position 43 (n) [43 deoxyinosine (parent base A)], less effective inactivation, worst of stem-inosine set, 60 C, letters built from the parent sequence and the stated change, variant of circular aptamer SEQ ID …) was “less active”.
In the case of “AAATTATATTCTTAGCGTTTTATAATTTTAAAACGAAGTTTTA [circular aptamer SEQ ID NO:6]”, the “activity on this sequence” value ([1]; inosine-free, Taq block not affected by endonuclease V (indirect PCR readout)) is reported as “not active” and the “functional effect of the aptamer” value (Taq DNA polymerase; effectively blocks Taq during PCR, 5 mM MgCl2, 50 mM KCl, 60 C) is reported as “active”.

Source: US20200377869
